The target in this assay is HA-tagged Hac1p (S. cerevisiae) (UniProt P41546). The assay can be described thus: native gel or EMSA; supershift: crude extracts of Tm-treated yeast expressing Gcn4p-myc and HA-Hac1p, incubated with 32P-labelled UPRE-1 or UPRE-2 oligos and with anti-myc, anti-HA or both; nondenaturing 5% polyacrylamide gel with 4% glycerol; the two proteins are seen together on the DNA.

Protein sequences, listed by entry. Tags and fused reporters are not part of them. Lines headed by an entry give the natural chain unless they say otherwise; changes in a name come on top.
UniProt P41546: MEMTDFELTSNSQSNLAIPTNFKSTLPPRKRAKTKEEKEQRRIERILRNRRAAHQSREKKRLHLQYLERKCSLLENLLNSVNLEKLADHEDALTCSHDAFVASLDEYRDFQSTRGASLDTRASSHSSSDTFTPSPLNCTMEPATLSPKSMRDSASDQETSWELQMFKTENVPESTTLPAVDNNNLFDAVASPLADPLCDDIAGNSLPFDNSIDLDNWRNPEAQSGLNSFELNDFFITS
UniProt P03069: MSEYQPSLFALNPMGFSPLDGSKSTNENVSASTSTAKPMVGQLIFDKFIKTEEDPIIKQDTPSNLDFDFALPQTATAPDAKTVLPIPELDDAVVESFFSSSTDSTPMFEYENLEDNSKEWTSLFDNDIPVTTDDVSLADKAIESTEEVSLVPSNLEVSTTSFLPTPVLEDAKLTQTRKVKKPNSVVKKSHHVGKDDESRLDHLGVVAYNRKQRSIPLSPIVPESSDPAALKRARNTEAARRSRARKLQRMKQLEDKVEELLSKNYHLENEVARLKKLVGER

Results are given in words; binding and its absence hold for the method and conditions named. Binding calls can cover weak binding; strength is not graded here.

For “myc-tagged Gcn4p (from UniProt P03069 1-281)”, the binding result is “binds”.

Values taken from publication PMC509306.
